The text below walks through data of US7713952B2, “2-methylene-19,26,27-trinor-(20S)-1α-hydroxyvitamin D3 and its uses” (Wisconsin Alumni Research Foundation, priority 2004, dated 2010).

This experiment relates to 24-hydroxylase (24Ohase) gene promoter in ROS 17/2.8 (bone) cells. The experiment is described as follows: In vitro transcription assay (24-hydroxylase promoter luciferase reporter). The format is cell-based. As to conditions: ROS 17/2.8 cells, 24OHase-luciferase, 16 h; FIG. 3; read-out: EC50, transcriptional activity in bone cells. As for the experimental part: In Vitro Transcription Assay
Transcription activity was measured in ROS 17/2.8 (bone) cells that were stably transfected with a 24-hydroxylase (24Ohase) gene promoter upstream of a luciferase reporter gene (Arbour et al., 1998). Cells were given a range of doses. Sixteen hours after dosing the cells were harvested and luciferase activities were measured using a luminometer.
RLU=relative luciferase units.
In general terms: A reporter such as luciferase makes a cellular process visible.

In the case of `C=C1/C(=C\C=C2/CCC[C@]3(C)[C@@H]([C@H](C)CCCC(C)(C)O)CC[C@@H]23)C[C@@H](O)C[C@@H]1O` [1,25(OH)2D3, 1α,25-dihydroxyvitamin D3, reference compound], the EC50 (commonly the concentration giving half of the maximal effect) is 190 pM.
